# Reference: patent US20050266004A1 (published 2005)
# These are yes or no findings as the source states them, for the method shown. Some entries that bind do so weakly or less than the wild type.
# T1: recombinant human lymphotoxin alpha (rhuLTα) (human) (UniProt P01374)
# T1 sequence (looked up): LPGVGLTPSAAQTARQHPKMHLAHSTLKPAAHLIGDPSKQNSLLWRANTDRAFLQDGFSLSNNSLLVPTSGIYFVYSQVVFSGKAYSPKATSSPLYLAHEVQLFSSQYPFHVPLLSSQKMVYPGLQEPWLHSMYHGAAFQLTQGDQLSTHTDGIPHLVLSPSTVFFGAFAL
# Target: T1, recombinant human lymphotoxin alpha (rhuLTα) (human)
# Assay: EIA, rhuLTα coated on plates
binder,measurement,value
"murine anti-human LTα Mab 4 (antibody, V domains shown, Tested as the murine IgG1 kappa hybridoma Mab; also called Mab number 4) VH: PGLVAPAQSLSITCTVSGFSLTSYGVHWVRQPPGKGLEWLGVIWAGGNTNYNSPLMSRLRIIKDNSKSQVFLKMNSLQADDTAMYYCVSHDVNNPFGYWGQGTLVTVSA VL: DIQMTQTTSSLSASLGDRVTISCRASQDITNYLNWYQQKPDGTVKLLIYYTSRLHSGVPSRFSGSGSGTDYSLTISNLEQEDIATYFCQQGNTLPYTFGGGTRLEIK",binding,binds
